This test has as its target T1, murine Ifit1 (mouse (endogenous in MEFs)) (UniProt Q64282).
T1 sequence: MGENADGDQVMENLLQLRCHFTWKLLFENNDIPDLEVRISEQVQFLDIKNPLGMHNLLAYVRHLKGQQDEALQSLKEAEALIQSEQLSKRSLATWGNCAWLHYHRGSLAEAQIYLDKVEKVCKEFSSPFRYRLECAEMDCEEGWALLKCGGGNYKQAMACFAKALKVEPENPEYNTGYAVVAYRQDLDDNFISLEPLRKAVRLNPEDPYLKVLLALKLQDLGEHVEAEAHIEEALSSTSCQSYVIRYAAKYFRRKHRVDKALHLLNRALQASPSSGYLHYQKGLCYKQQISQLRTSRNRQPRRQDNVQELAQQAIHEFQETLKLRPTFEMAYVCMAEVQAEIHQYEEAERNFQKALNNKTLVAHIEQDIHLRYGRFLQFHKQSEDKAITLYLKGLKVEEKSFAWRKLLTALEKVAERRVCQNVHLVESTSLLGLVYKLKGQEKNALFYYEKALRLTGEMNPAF
Nature of the test: affinity purification with mass spectrometry; CAP-RNA against OH-RNA on beads, lysates of IFN-α-treated MEFs from wild-type (Ifit1+/+) and Ifit1-deficient (Ifit1-/-) mice; the bait is RNA.

No constants are given. Whether binding was seen depends on the method and setting. Binding seen in cells or lysates may run through a third protein. Here binding means that the protein was enriched with, or labelled near, the bait; the list need not be complete.

With “murine Ifit1c (also known as Gm14446) (mouse (endogenous in MEFs))”, the binding entry is “binds”.

These data come from article PMC3789756.
